Measured values taken from US20050250106.
Results from cells or extracts need not show a direct contact.

Tested on: NF-kB p50 (p50/p65 heterodimer)
Experiment: EMSA
Conditions: lysate of TNF-alpha stimulated HeLa/293 cells; 20 mM Tris pH 8, 200 mM KCl, 10 mM MgCl2, RT 15 min (binding buffer stock); protein in an extract; label: 5'-32P

## GCCATGGGGGGATCCCCGAAGTCC (double strand) [NF-kB EMSA probe]
  binding result: binds
